{"sequences": {"note": "Sequences of proteins named here, by UniProt entry; tags and fusion partners are left off. A change or cut given only in a name is not applied to a line headed by its entry.", "UniProt A0A5A4HXD4": "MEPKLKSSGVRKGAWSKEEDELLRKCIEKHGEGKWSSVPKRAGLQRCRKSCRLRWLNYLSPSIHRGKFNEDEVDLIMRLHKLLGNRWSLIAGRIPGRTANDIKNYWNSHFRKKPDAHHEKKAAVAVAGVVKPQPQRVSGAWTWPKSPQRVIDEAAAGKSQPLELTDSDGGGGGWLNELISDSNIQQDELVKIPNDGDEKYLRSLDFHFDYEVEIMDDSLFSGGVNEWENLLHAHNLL", "UniProt A0A218MNI8": "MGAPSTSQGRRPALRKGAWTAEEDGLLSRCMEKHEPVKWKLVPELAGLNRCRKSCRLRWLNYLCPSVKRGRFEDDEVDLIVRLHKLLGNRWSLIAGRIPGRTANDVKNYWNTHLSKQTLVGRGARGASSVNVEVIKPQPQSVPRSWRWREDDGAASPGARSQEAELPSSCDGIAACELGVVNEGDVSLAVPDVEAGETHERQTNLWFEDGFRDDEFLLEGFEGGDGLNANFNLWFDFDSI"}, "source": "paper PMC6734322", "key": {"[1]": {"target": "YN/MabHLH1 (Muscari armeniacum)", "test": "split reporter; BiFC with split YFP (pSPYNE (R) 173 and pSPYCE (M)); transformed Agrobacterium GV3101 cultures co-infiltrated into N. benthamiana leaves, 3 d in a light incubator, laser scanning confocal microscopy"}, "[2]": {"target": "YC/MabHLH1 (Muscari armeniacum)", "test": "split reporter; BiFC with split YFP (pSPYNE (R) 173 and pSPYCE (M)); transformed Agrobacterium GV3101 cultures co-infiltrated into N. benthamiana leaves, 3 d in a light incubator, laser scanning confocal microscopy"}}, "note": "These are yes or no findings as the source states them, for the method shown. In cells and extracts the contact can be indirect. Binding calls can cover weak binding; strength is not graded here.", "data": [{"substance": "YC/MaMybA (from UniProt A0A5A4HXD4)", "values": [{"measurement": "binding", "setting": "[1]", "result": "binds"}]}, {"substance": "YN/MaAN2 (from UniProt A0A218MNI8)", "values": [{"measurement": "binding", "setting": "[2]", "result": "binds"}]}]}
